Data as given in article PMC10981688.
Results are given in words; binding and its absence hold for the method and conditions named. In cells and extracts the contact can be indirect. Some results given as binding are weak or reduced against the parent protein; the word gives no strength.

Protein sequences, listed by entry. Tags and fused reporters are not part of them. Lines headed by an entry give the natural chain unless they say otherwise; changes in a name come on top.
UniProt Q01518: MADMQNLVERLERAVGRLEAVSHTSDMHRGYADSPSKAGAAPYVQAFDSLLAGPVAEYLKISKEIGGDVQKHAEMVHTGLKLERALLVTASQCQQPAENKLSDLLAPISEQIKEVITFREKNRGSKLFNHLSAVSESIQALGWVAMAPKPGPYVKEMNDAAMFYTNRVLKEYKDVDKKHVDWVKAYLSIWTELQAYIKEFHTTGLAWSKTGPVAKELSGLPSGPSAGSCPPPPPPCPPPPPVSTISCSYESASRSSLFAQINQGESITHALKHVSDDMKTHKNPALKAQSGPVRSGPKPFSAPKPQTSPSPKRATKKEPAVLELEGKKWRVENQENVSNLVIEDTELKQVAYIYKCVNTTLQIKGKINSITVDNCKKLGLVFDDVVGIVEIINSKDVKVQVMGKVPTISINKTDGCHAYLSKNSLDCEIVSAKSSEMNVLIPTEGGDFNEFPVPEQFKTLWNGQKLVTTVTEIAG
UniProt Q05655: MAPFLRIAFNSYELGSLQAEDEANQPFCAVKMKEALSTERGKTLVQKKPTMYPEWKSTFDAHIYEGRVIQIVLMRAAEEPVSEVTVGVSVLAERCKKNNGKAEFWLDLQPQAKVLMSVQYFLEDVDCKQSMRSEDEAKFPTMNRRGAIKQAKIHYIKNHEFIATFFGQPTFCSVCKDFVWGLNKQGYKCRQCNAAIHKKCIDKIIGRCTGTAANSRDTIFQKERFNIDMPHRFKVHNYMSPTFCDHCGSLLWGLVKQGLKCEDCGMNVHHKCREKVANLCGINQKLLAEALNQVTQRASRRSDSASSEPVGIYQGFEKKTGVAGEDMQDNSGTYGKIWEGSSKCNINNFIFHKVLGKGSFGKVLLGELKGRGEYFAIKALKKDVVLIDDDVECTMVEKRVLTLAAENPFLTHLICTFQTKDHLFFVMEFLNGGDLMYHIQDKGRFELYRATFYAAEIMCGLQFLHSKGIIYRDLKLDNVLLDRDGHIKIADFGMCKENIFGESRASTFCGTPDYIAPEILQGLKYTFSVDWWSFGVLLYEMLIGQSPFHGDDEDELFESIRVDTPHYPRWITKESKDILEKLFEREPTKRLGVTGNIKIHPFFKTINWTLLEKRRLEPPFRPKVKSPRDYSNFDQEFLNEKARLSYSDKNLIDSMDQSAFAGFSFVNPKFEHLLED

Molecular target: CAP1, endogenous in THP-1 monocytes (human (endogenous in THP-1)) (UniProt Q01518)
Test: co-IP; immunoprecipitation of endogenous proteins from THP-1 lysates (CAP1 and PCSK9 antibodies; CAP1, Syk and PKCδ), immunoblot

binding: binds
Substance: PKCδ, endogenous in THP-1 monocytes (from UniProt Q05655 1-676) (enzyme)
